# PubChem BioAssay AID1259308 | NCATS – 2017
# Aim: 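Candidate targets for better recombinant protein yield in mammalian cells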 (primary screen)
# Cell system: human HEK293 embryonic kidney cells stably expressing firefly luciferase (HEK-CMV-Luc2-Hygro)
# Reagents: single siRNA against human genes, 0.8 pmol siRNA per well
# Timing: 72 h
# Detection: 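Luciferase light (ONE-Glo) measured on one replicate plate set and viability (CellTiter-Glo) on the other, scaled to a negative control siRNA, with robust z-scores and luciferase per cell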
# Direction: total luciferase, z-score and total luciferase, % of control: higher = more reporter protein produced; luciferase per cell, z-score: higher = more reporter output per viable cell; viable cells, % of control: higher = more viable cells
# Hit rule: 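Active when the median/MAD z-score for overall luciferase is greater than 3; a gene was taken forward for validation with new siRNAs if at least two of its three siRNAs passed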
# Calls: active = raised luciferase; inactive = no rise
# In all, the deposit lists about 59,000 reagents; shown is an unselected part. Of all reagents, about 1,510 (2.6%) were called active. 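Calls use total luciferase alone and ignore viability, so some active siRNAs may act by altering cell number.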
Target gene,PubChem SID,"total luciferase, z-score","total luciferase, % of control","luciferase per cell, z-score","viable cells, % of control",outcome
KCTD1 (potassium channel tetramerization domain containing 1),SID160763221,0.376,89.4,0.323,91.7,inactive
KCTD1 (potassium channel tetramerization domain containing 1),SID160763222,-1.11,59.7,-0.728,80.8,inactive
KCTD1 (potassium channel tetramerization domain containing 1),SID160763223,-1.29,56.3,-1.93,104,inactive
LOC729532 (zinc finger protein 207 pseudogene),SID160772852,1.24,107,1.37,83.1,inactive
LOC729532 (zinc finger protein 207 pseudogene),SID160772853,0.982,101,2.04,66.3,inactive
LOC729532 (zinc finger protein 207 pseudogene),SID160772854,-0.896,64.1,-0.282,77.1,inactive
LRSAM1 (leucine rich repeat and sterile alpha motif containing 1),SID160753787,1.93,120,1.21,97.7,inactive
LRSAM1 (leucine rich repeat and sterile alpha motif containing 1),SID160753788,0.852,98.8,1.05,83.8,inactive
LRSAM1 (leucine rich repeat and sterile alpha motif containing 1),SID160753789,0.844,98.7,0.439,98.2,inactive
SLC12A2,SID160716932,0.85,98.8,0.521,96.2,inactive
SLC12A2,SID160716933,-0.554,70.9,-0.965,102,inactive
SLC12A2,SID160716934,0.321,88.3,0.376,89.3,inactive
AREL1 (apoptosis resistant E3 ubiquitin protein ligase 1),SID160723307,2.25,127,1.2,103,inactive
AREL1 (apoptosis resistant E3 ubiquitin protein ligase 1),SID160723308,-1.11,59.9,-0.302,72.5,inactive
AREL1 (apoptosis resistant E3 ubiquitin protein ligase 1),SID160723309,-1.5,52,-1.27,81.2,inactive
LINC02538 (long independently transcribed non-coding RNA 2538),SID160767240,-0.212,77.7,-0.105,89.2,inactive
LINC02538 (long independently transcribed non-coding RNA 2538),SID160767241,1.71,116,1.4,89.6,inactive
LINC02538 (long independently transcribed non-coding RNA 2538),SID160767242,-2.46,33,-1.69,57.6,inactive
RPP38-DT (RPP38 divergent transcript),SID160732701,1.58,113,1.05,96,inactive
RPP38-DT (RPP38 divergent transcript),SID160761584,-0.225,77.4,0.804,70,inactive
RPP38-DT (RPP38 divergent transcript),SID160761585,0.779,97.4,1.08,81.8,inactive
INMT (indolethylamine N-methyltransferase),SID160730152,0.581,93.4,0.765,85.4,inactive
INMT (indolethylamine N-methyltransferase),SID160730153,2.02,122,0.813,110,inactive
INMT (indolethylamine N-methyltransferase),SID160730154,-2.54,31.3,-3.14,80.1,inactive
SNX11 (sorting nexin 11),SID160731046,-1.11,59.9,-1.36,95.7,inactive
SNX11 (sorting nexin 11),SID160739288,-0.238,77.2,0.256,80.6,inactive
SNX11 (sorting nexin 11),SID160739289,0.181,85.5,0.564,82.4,inactive
HIGD1B (HIG1 hypoxia inducible domain family member 1B),SID160733522,0.488,91.6,0.143,98.6,inactive
HIGD1B (HIG1 hypoxia inducible domain family member 1B),SID160741306,-0.337,75.2,0.623,71.3,inactive
HIGD1B (HIG1 hypoxia inducible domain family member 1B),SID160741307,-0.488,72.2,-0.687,96.6,inactive
MAML1 (mastermind like transcriptional coactivator 1),SID160723108,4.6,173,2.67,96,active
MAML1 (mastermind like transcriptional coactivator 1),SID160723109,2.33,128,2.4,76.2,inactive
MAML1 (mastermind like transcriptional coactivator 1),SID160723110,-0.182,78.3,-0.394,97,inactive
TAF1A,SID160721268,1.95,121,1.53,90.1,inactive
TAF1A,SID160721269,-0.364,74.6,-0.419,93.1,inactive
TAF1A,SID160721270,-1.6,50,-1.34,79.6,inactive

Laid out differently: results already given.
{"Target gene": "KCTD1 (potassium channel tetramerization domain containing 1)", "PubChem SID": "SID160763222", "total luciferase, z-score": -1.11, "total luciferase, % of control": 59.7, "luciferase per cell, z-score": -0.728, "viable cells, % of control": 80.8, "outcome": "inactive"}
{"Target gene": "KCTD1 (potassium channel tetramerization domain containing 1)", "PubChem SID": "SID160763223", "total luciferase, z-score": -1.29, "total luciferase, % of control": 56.3, "luciferase per cell, z-score": -1.93, "viable cells, % of control": 104, "outcome": "inactive"}
{"Target gene": "LOC729532 (zinc finger protein 207 pseudogene)", "PubChem SID": "SID160772852", "total luciferase, z-score": 1.24, "total luciferase, % of control": 107, "luciferase per cell, z-score": 1.37, "viable cells, % of control": 83.1, "outcome": "inactive"}
{"Target gene": "LOC729532 (zinc finger protein 207 pseudogene)", "PubChem SID": "SID160772853", "total luciferase, z-score": 0.982, "total luciferase, % of control": 101, "luciferase per cell, z-score": 2.04, "viable cells, % of control": 66.3, "outcome": "inactive"}
{"Target gene": "LOC729532 (zinc finger protein 207 pseudogene)", "PubChem SID": "SID160772854", "total luciferase, z-score": -0.896, "total luciferase, % of control": 64.1, "luciferase per cell, z-score": -0.282, "viable cells, % of control": 77.1, "outcome": "inactive"}
{"Target gene": "LRSAM1 (leucine rich repeat and sterile alpha motif containing 1)", "PubChem SID": "SID160753787", "total luciferase, z-score": 1.93, "total luciferase, % of control": 120, "luciferase per cell, z-score": 1.21, "viable cells, % of control": 97.7, "outcome": "inactive"}
{"Target gene": "LRSAM1 (leucine rich repeat and sterile alpha motif containing 1)", "PubChem SID": "SID160753788", "total luciferase, z-score": 0.852, "total luciferase, % of control": 98.8, "luciferase per cell, z-score": 1.05, "viable cells, % of control": 83.8, "outcome": "inactive"}
{"Target gene": "LRSAM1 (leucine rich repeat and sterile alpha motif containing 1)", "PubChem SID": "SID160753789", "total luciferase, z-score": 0.844, "total luciferase, % of control": 98.7, "luciferase per cell, z-score": 0.439, "viable cells, % of control": 98.2, "outcome": "inactive"}

Additional results:
Target gene,PubChem SID,"total luciferase, z-score","total luciferase, % of control","luciferase per cell, z-score","viable cells, % of control",outcome
PDP1 (pyruvate dehydrogenase phosphatase catalytic subunit 1),SID160742043,-1.29,56.2,-0.66,74.7,inactive
PDP1 (pyruvate dehydrogenase phosphatase catalytic subunit 1),SID160742044,-0.799,66,-0.984,95.6,inactive
PDP1 (pyruvate dehydrogenase phosphatase catalytic subunit 1),SID160742045,2.01,122,0.248,128,inactive
SPON1 (spondin 1),SID160728371,0.903,99.9,0.651,94,inactive
SPON1 (spondin 1),SID160728372,1.92,120,0.956,104,inactive
SPON1 (spondin 1),SID160728373,1.02,102,0.335,104,inactive
H2AC1 (H2A clustered histone 1),SID160761729,3.89,159,3.38,73.1,active
H2AC1 (H2A clustered histone 1),SID160761730,-0.66,68.8,0.0927,75,inactive
H2AC1 (H2A clustered histone 1),SID160761731,0.612,94.1,0.626,89.1,inactive
ITM2C (integral membrane protein 2C),SID160750901,-0.746,67.1,-0.881,94.5,inactive
ITM2C (integral membrane protein 2C),SID160750902,-0.632,69.3,-0.847,96.8,inactive
ITM2C (integral membrane protein 2C),SID160750903,0.19,85.7,-0.114,98.7,inactive
H2BW2 (H2B.W histone 2),SID160763852,1.14,104,0.808,94.4,inactive
H2BW2 (H2B.W histone 2),SID160763853,0.344,88.7,0.292,91.8,inactive
H2BW2 (H2B.W histone 2),SID160763854,-0.204,77.8,-0.447,97.8,inactive
FAM171B (family with sequence similarity 171 member B),SID160760161,0.996,102,0.244,107,inactive
FAM171B (family with sequence similarity 171 member B),SID160760163,-1.2,58,-0.837,80.8,inactive
FAM171B (family with sequence similarity 171 member B),SID160760164,-0.105,79.8,-0.0463,90.3,inactive
FRAT2 (FRAT regulator of Wnt signaling pathway 2),SID160732764,0.696,95.7,0.487,94.1,inactive
FRAT2 (FRAT regulator of Wnt signaling pathway 2),SID160736204,2.15,125,2.41,73.8,inactive
FRAT2 (FRAT regulator of Wnt signaling pathway 2),SID160736205,2.29,127,2.17,80.4,inactive
